Article PMC4871572
No constants are given. Whether binding was seen depends on the method and setting. Binding seen in cells or lysates may run through a third protein. Some binding calls cover weakened binding; strength is not graded here. Where a sequence is shown, tags or fusion partners need not be part of it.

T1: EGFP-tagged rat EIPR1 (rat) (UniProt Q5PPK9)
T1 sequence: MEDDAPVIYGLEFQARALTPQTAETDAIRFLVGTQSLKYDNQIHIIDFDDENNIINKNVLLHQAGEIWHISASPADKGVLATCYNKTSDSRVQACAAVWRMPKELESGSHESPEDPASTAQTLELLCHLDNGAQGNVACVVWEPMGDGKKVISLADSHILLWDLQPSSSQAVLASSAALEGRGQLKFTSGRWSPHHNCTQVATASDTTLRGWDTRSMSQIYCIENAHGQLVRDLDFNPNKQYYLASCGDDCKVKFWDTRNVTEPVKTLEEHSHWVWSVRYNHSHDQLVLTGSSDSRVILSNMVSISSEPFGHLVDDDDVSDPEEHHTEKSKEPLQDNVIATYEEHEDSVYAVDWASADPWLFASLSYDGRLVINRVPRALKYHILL

B1: VPS50 (protein, UniProt F1LSG8 1-964)
chain: MQKIKSLMTRQGLKSPPESLNDLGAFESLRVPGKEEFRELREQPSDPQAEQELINSIEQVYFSADPFDIVKYELEKLPPVLNLQELEEYRDKLKQQQAAVSKKVADLILEKQPAYVKELERVTSLQTGLQLAAVICTNSRRHLNIAKEGFTQASLGLLANQRKRQLLIGLLKSLRTIKTLQRTDVRLSEMLEEEDYPGAIQLCLECQKAASTFKHYSCISELNSKLQDTLEQIEEQLDVALSKICKNFDVNHYTKVQQAYRLLGKTQTAMDQLHMHFTQAIHNTVFQVVLGYVELCAGNTDTKFQKLQYKDLCTHVTPDSYIPCLADLCKALWEVMLSYYRTMEWHEKHDSEETAAASEGSNVMSTEETNFDRGYVKKKLEHGLTRIWQDVQLKVKTYLLGTDLSIFKYDDFIFVLDIVSRLMQVGEEFCGSKSEVLQESIRKQSINYFKNHHRIRLDELRMFLENETWELCPVKSNFSILQLHEFKFLEQSRSPSVSPSKQPSATSSKPVTLFEQYCSGGNPFEIQADHKDEETEDVLASNGYESDEQEKSAYQDYDSDSDVPEELKRDYVDEQTGDVPVKSVSRETLKSRKKSDYSLNKVNAPILTNTTLNVIRLVGKYMQMMNILKPIAFDVIHFMSQLFDYYLYAIYTFFGRNDSLESTGLGLSSSRLRTTLNRIQESLIDLEGSADPTATLTAAEERKEKVPSPHLNQLVILTSGDTLYGLAERVVATESLVFLAEQFEFLQPHLDAVMPAVKKPFLQQFYSQTVSTASELRKPIYWIVAGKAIDYEQMLLLMTNVKWDVKEIMSQHNVYVDALLKEFEQFNKRLNEVSKRVRIPLPVSNILWEHCIRLANRTIVEGYANVKKCSNEGRALMQLDFQQFLMKLEKLTDIRPIPDKEFVEIYIKAYYLTENDMERWIKEHREYSTKQLTNLVNVCLGSHINKKARQKLLAAIDDIDRPKR
B2: mCherry-tagged rat VPS51 (protein, UniProt F1M4I4 1-782)
chain: MAAAAAVGPGLGSGPGDSPEGSEADAPERRRKAHGMLKLYYGLSEGEATGHSAGSDPLDPTDLNGAHFDPEVYLDKLRRECPLAQLMDSETDMVRQIRALDSDMQTLVYENYNKFISATDTIRKMKNDFRKMEDEMDRLATNMAVITNFSARISATLQDRHERITKLAGVHALLRKLQFLFELPSRLTKCVELGAYGQAVRYQGRARAVLQQYQHLPSFRAIQDDCQVITARLAQQLRQRFREGCSGAPEQAECVELLLALGEPAEELCEEFLAHARGRLEEELSSLETELGPSPPAPDVLEFTDRGGNGFVGGLCQVAAAYQELFAAQGPAGAEKLAAFAQELGGRYFALVERRLAQEQGGSDNSLLVRALDRFHRRLRAPGALLAAAGLSESATEIVERVARERLSHHLQGLKAAFLSCLTDVRQALAAPRLAGKEGPSLAELLANVASSILSHIKASLASVHLFTAKEVSFSNKPYFRGEFCSQGVREGLIVGFIRSMCQTAQGFCDSPGEKGGATPPALLLLLSRLCLDYETATISYILTLTDEQFLVQDQSPVTPVSTLCAEARETARRLLTHYVKVQGLVISQMLRKSVETRDWLSTLEPRNVRAVMKRVVEDTTAIDVQVGLLYEEGVRKAQSSDSSKRTFSVYSSSRQQGRYAPSYTPSAPMDTNLLSNIQKLFSERIDVFSPVEFNKVSVLTGIIKISLKTLLECVRLRTFGRFGLQQVQVDCHFLQLYLWRFVADEELVHLLLDEVVASAALRCPDPVPMEPSVVEVICERG
B3: SNAP29 (protein, UniProt Q9Z2P6 1-257)
chain: MSGYPKSYNPFDDDVEDEDTRPAPWKDARDLPDGPDPPIDRQQYLRQEVLRGPSATAASTSRSLFLMYESEKIGVASSEELVRQRGVLEHTEKMVDKMDQDLKMSQKHINSIKSVFGGFINYFKSKPVEPPPEQNGSIVPQPSSRLKEAINTSKDQESKYQASHPNLRRLHDAELDSVPASTVNTEVYPKNSSLRAYHQKIDSNLDELSVGLGRLKDIALGMQTEIEEQDDILDRLTTKVDKLDVNIKSTEKKVRQL

Biological target: T1, EGFP-tagged rat EIPR1 (rat)
Test: co-IP; 832/13 cells transfected with EIPR1::EGFP or EGFP (with or without VPS51::mCherry); lysates incubated with anti-GFP nanobody magnetic beads, washed three times with lysis buffer (50 mM Tris pH 7.5, 150 mM NaCl, 1% NP-40); immunoblot with anti-mCherry, anti-VPS50 or anti-SNAP29

Row | binding | Binder
1 | binds | B1
2 | binds | B2
3 | binds | B3
